1 substance from article PMC4311446 can be followed below.

Sequences of proteins named here, by UniProt entry; tags and fusion partners are left off.
UniProt O15379: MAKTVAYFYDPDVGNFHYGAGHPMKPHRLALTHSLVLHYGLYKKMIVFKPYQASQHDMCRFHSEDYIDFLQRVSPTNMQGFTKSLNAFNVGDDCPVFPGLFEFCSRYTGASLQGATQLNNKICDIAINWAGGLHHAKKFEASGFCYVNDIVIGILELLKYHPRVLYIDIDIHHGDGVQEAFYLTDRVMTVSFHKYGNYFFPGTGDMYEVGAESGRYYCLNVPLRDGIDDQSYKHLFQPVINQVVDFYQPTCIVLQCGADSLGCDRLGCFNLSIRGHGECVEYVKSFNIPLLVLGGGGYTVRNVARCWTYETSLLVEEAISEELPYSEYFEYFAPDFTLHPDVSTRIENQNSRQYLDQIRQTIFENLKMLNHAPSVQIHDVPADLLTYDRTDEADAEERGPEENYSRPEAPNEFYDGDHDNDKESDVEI
UniProt Q13526: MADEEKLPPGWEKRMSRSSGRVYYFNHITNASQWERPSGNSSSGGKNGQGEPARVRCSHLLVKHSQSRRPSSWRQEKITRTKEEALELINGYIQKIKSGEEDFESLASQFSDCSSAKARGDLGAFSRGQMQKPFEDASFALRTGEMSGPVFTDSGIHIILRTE

This experiment addresses Histone deacetylase 3 (HDAC3) (human (endogenous in PLC/PRF/5)) (UniProt O15379). The experiment in a line: co-IP; endogenous proteins in cell lysates; lysates precleared with protein A/G Plus-agarose; primary antibody coupled to Dynabeads Protein G, incubated with lysate overnight at 4°C; washed three times with PBS; Western blot. A general note: Immunoblotting shows a protein as a band on a membrane.

Results are given in words; binding and its absence hold for the method and conditions named. In cells and extracts the contact can be indirect. Some results given as binding are weak or reduced against the parent protein; the word gives no strength.

As to “Peptidyl-prolyl cis/trans isomerase 1 (Pin1) (from UniProt Q13526 1-163)”, the binding result is recorded as “binds”.
